From US20060165706A1

Target: CHO.B7.1
Assay: FACS, direct staining of CHO.B7.1 control cells with FITC-labeled murine CTLA4-26B (key in FIG. 6D)

B1: murine anti-human CTLA4 monoclonal antibody number 26 (antibody, V domains shown)
VH: QVQLKESGPGLVAPSQSLSITCTVSGFSLTSYGVYWVRQPPGKGLEWLGVIWAGGTTNYNSALMSRLSISKDNSKSQVFLKMSSLQTDDTAMYYCARGPPHAMMKRGYAMDYWGQGTSVIVSS
VL: QNVLTQSPAIMPASPGEKVTMTCSATSSITYMSWYQQKSGSSPRLLIYDTSNLASGVPVRFSGSGSGTSYSLTISRMEAEDAATYYCQQWSSYPLTFGAGTKLELK
binding: no binding (tested: 125 ng)

Results are given in words; binding and its absence hold for the method and conditions named.
